Measurements taken from US5519002A, “Method and composition for preventing conception” (Mallinckrodt Veterinary, Inc., priority 1993, dated 1996).
Entries after “also recorded” stand apart in the source; their conditions may differ. At least one peptide structure holds a part that was inferred or is arguable (an end, a ring closure or a residue). Ends that are not written are not given here.

Tested on: young adult female rats
Experiment: Conception prevention trial: treated female rats housed with fertile males, observed 105 days, reproductive organs examined at the end
Type: in vivo
Conditions: for Pregnancies Weeks 1-6 / Pregnancies Weeks 7-15: pregnant/total female rats; for Uterus Condition: at sacrifice after 105 days
[1] = Group 1, LHRH 0.5 mg in w/o adjuvant, single i.m. injection 0.2 ml
[2] = Group 2, LysLHRH 0.5 mg in w/o adjuvant, i.m.

Compound	Pregnancies Weeks 1-6 [1]	Pregnancies Weeks 7-15 [1]	Uterus Condition (Group 1, LHRH 0.5 mg in w/o adjuvant, condition-number of animals)	period after administration for which conception is prevented (Group 1, LHRH 0.5 mg in w/o adjuvant, female rats)	Pregnancies Weeks 1-6 [2]	Pregnancies Weeks 7-15 [2]	Uterus Condition (Group 2, LysLHRH 0.5 mg in w/o adjuvant)	prevention of pregnancy (in words) (Group 2, free LysLHRH 0.5 mg in w/o adjuvant, female rats)
CC(C)C[C@H](NC(=O)CNC(=O)[C@H](Cc1ccc(O)cc1)NC(=O)[C@H](CO)NC(=O)[C@H](Cc1c[nH]c2ccccc12)NC(=O)[C@H](Cc1c[nH]cn1)NC(=O)[C@@H]1CCC(=O)N1)C(=O)N[C@@H](CCCNC(=N)N)C(=O)N1CCC[C@H]1C(=O)NCC(N)=O [LHRH, pGlu-His-Trp-Ser-Tyr-Gly-Leu-Arg-Pro-Gly-NH2]	0/4	2/4	normal-3; also recorded: atrophy-1	6 weeks				
KWSYGLRPG-NH2 [LysLHRH, Lys-Trp-Ser-Tyr-Gly-Leu-Arg-Pro-Gly-NH2]					4/4	4/4	normal-4/4	failure
